# This is one part of the list. Many values rest on one well or one pass, so single values are uncertain.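 Imaging used 1,536-well plates; nuclei positive for cleaved PARP by antibody were divided by total DNA-stained nuclei to yield the apoptosis fraction. Doses for screening kept most cells viable, and cell lines differ markedly in resting and induced cleaved-PARP levels.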
# Test system: A2058
# Test: cleaved PARP positive nuclei fraction relative to DMSO control; melanoma cells; higher = more apoptosis
# Details: library dose: low library concentration; 72 h
row,Compound,cleaved PARP positive nuclei fraction [%]
1,"COCC[n+]1c2c(n(Cc3cnccn3)c1C)C(=O)c1ccccc1C2=O + CN(NC(=O)CC(=O)NN(C)C(=S)c1ccccc1)C(=S)c1ccccc1 [STA4783] (first compound 0.0004 µM, partner dose 0.006 µM)",731
2,"Cn1nnc2c(C(N)=O)ncn2c1=O [temozolomide] + CC1(C)NC(=O)N(c2ccc([N+](=O)[O-])c(C(F)(F)F)c2)C1=O [nilutamide] (first compound 2 µM, partner dose 1 µM)",169
3,"COCC[n+]1c2c(n(Cc3cnccn3)c1C)C(=O)c1ccccc1C2=O + O=C(CCCCCCC(=O)Nc1ccccc1)NO [vorinostat] (first compound 0.0004 µM, partner dose 0.08 µM)",22.7

# Test system: A375
# Test: as above
# Details: library dose: low library concentration; 72 h
row,Compound,cleaved PARP positive nuclei fraction [%]
1,"Cc1nc(Nc2ncc(C(=O)Nc3c(C)cccc3Cl)s2)cc(N2CCN(CCO)CC2)n1 [dasatanib] + O=C(CCCCCCC(=O)Nc1ccccc1)NO [vorinostat] (first compound 0.004 µM, partner dose 0.08 µM)",49.3
2,"Nc1cccc2c1CN(C1CCC(=O)NC1=O)C2=O (stereo not given) [lenalidomide] + CC(C)(C)c1cnc(CSc2cnc(NC(=O)C3CCNCC3)s2)o1 [SNS-032] (first compound 1 µM, partner dose 0.01 µM)",89.8
3,"OCc1c[nH]c2ccccc12 [Indole-3-carbinol] + Cc1ccc(NC(=O)c2cccc(N(C)C)c2)cc1NC(=O)c1ccc(O)cc1 [ZM336372] (first compound 0.8 µM, partner dose 2 µM)",148
4,"COc1cc(Nc2ncc(F)c(Nc3ccc4c(n3)NC(=O)C(C)(C)O4)n2)cc(OC)c1OC [Tamatinib] + COc1cc2c(Oc3ccc4[nH]c(C)cc4c3F)ncnc2cc1OCCCN1CCCC1 [cediranib] (first compound 0.4 µM, partner dose 0.4 µM)",122
5,"C#Cc1cccc(Nc2ncnc3cc(OCCOC)c(OCCOC)cc23)c1 [erlotinib] + CC(C)(C)c1cnc(CSc2cnc(NC(=O)C3CCNCC3)s2)o1 [SNS-032] (first compound 0.8 µM, partner dose 0.01 µM)",62.7
6,"Clc1ccc(Nc2nnc(Cc3ccncc3)c3ccccc23)cc1 [vatalanib] + Cc1cc(N2CCOCC2)cc2[nH]c(-c3c(NC[C@@H](O)c4cccc(Cl)c4)cc[nH]c3=O)nc12 [BMS536924] (first compound 2 µM, partner dose 0.2 µM)",188
7,"CC(=O)c1c(C)c2cnc(Nc3ccc(N4CCNCC4)cn3)nc2n(C2CCCC2)c1=O [palbociclib] + Cn1cncc1[C@@](N)(c1ccc(Cl)cc1)c1ccc2c(c1)c(-c1cccc(Cl)c1)cc(=O)n2C [tipifarnib] (first compound 0.04 µM, partner dose 0.01 µM)",434
8,"C[C@]1(c2nc3c(C(N)=O)cccc3[nH]2)CCCN1 [Veliparib] + Cc1ccc(NC(=O)c2cccc(N(C)C)c2)cc1NC(=O)c1ccc(O)cc1 [ZM336372] (first compound 1.4 µM, partner dose 2 µM)",51.9
9,"C=CCn1c(=O)c2cnc(Nc3ccc(N4CCN(C)CC4)cc3)nc2n1-c1cccc(C(C)(C)O)n1 + CN(C)S(=O)(=O)c1ccc2c(c1)/C(=C/c1cc3c([nH]1)CCCC3)C(=O)N2 [SU6656] (first compound 0.02 µM, partner dose 0.4 µM)",217
10,"Clc1ccc(Nc2nnc(Cc3ccncc3)c3ccccc23)cc1 [vatalanib] + O=C(CCCCCCC(=O)Nc1ccccc1)NO [vorinostat] (first compound 2 µM, partner dose 0.08 µM)",38.8
11,"OCc1c[nH]c2ccccc12 [Indole-3-carbinol] + COc1cc(Nc2ncc(F)c(Nc3ccc4c(n3)NC(=O)C(C)(C)O4)n2)cc(OC)c1OC [Tamatinib] (first compound 0.8 µM, partner dose 0.4 µM)",84.5
12,"COCC[n+]1c2c(n(Cc3cnccn3)c1C)C(=O)c1ccccc1C2=O + C=CCn1c(=O)c2cnc(Nc3ccc(N4CCN(C)CC4)cc3)nc2n1-c1cccc(C(C)(C)O)n1 [MK1775] (first compound 0.0004 µM, partner dose 0.02 µM)",312

# Taken from above:
# cleaved PARP positive nuclei fraction [%] with COc1cc(Nc2ncc(F)c(Nc3ccc4c(n3)NC(=O)C(C)(C)O4)n2)cc(OC)c1OC [Tamatinib] + COc1cc2c(Oc3ccc4[nH]c(C)cc4c3F)ncnc2cc1OCCCN1CCCC1 [cediranib] (first compound 0.4 µM, partner dose 0.4 µM) is entered as 122
# cleaved PARP positive nuclei fraction [%] with CC(=O)c1c(C)c2cnc(Nc3ccc(N4CCNCC4)cn3)nc2n(C2CCCC2)c1=O [palbociclib] + Cn1cncc1[C@@](N)(c1ccc(Cl)cc1)c1ccc2c(c1)c(-c1cccc(Cl)c1)cc(=O)n2C [tipifarnib] (first compound 0.04 µM, partner dose 0.01 µM) is entered as 434
